PubChem BioAssay AID192 (DTP/NCI, 2004)
The list does not hold the whole screen: it gathers tests that were run many times, whatever their T/C, doses with no T/C, and many T/C values between a quarter and a half above the control. Other doses and runs of a compound stand elsewhere. T/C: endpoint of the treated group in % of that of the vehicle group. Some doses have a count of surviving animals in place of a T/C: the source files T/C as zero there, which appears to mark a toxic dose or a test without result, not a measured value. Some survivor counts are full or nearly so, which does not show that the dose was tolerated: the source hardly ever lists a survival T/C far under the control, and the zero likely stands for such cases as well. Counts of survivors are from the toxicity check (mostly the fifth day) where no day follows; animals may have died later. Schedule codes are those of the source, taken here to give the interval after Q, in days (D) or hours (H), and the number of doses after X. Some entries hold several experiments; their values stand side by side, smallest first. Where survival is the endpoint, this PubChem deposit counts one and a half times the control or more as active, and values a quarter to a half above the control carry no call in these data; other NCI protocols may use other cut-offs. Some T/C values carry the count of animals alive at the toxicity check (mostly the fifth day); without a count, all were alive then.

Tested on: BDF1 mice, B16 melanoma ip, median survival T/C
Assay: NCI In Vivo Anticancer Drug Screen. Data for tumor model B16 Melanoma (intraperitoneal) in B6D2F1 (BDF1) mice
Conditions: T/C endpoint: median survival time, higher T/C = longer survival
Protocol: The antitumor activity of compounds was measured in mice bearing transplantable tumors. Survival or tumor size were measured and the results are expressed as the measurement made in the treated group (T) divided by the measurement made in the vehicle treated control group (C). The tumor model used in this assay is B16 Melanoma (intraperitoneal) in B6D2F1 (BDF1) mice

[1] = dose: 50.0 mg/kg/injection, schedule: Q01DX009 (ip), vehicle: saline
[2] = dose: 100.0 mg/kg/injection, schedule: Q01DX009 (ip), vehicle: saline
[3] = dose: 400.0 mg/kg/injection, schedule: Q01DX009 (ip), vehicle: Klucel (hydroxypropylcellulose) (HPC)
[4] = dose: 25.0 mg/kg/injection, schedule: Q01DX009 (ip), vehicle: Klucel (hydroxypropylcellulose) (HPC)
[5] = dose: 200.0 mg/kg/injection, schedule: Q01DX009 (ip), vehicle: Klucel (hydroxypropylcellulose) (HPC)
[6] = dose: 400.0 mg/kg/injection, schedule: Q01DX009 (ip), vehicle: saline with Tween-80
[7] = dose: 50.0 mg/kg/injection, schedule: Q01DX009 (ip), vehicle: Klucel (hydroxypropylcellulose) (HPC)
[8] = dose: 100.0 mg/kg/injection, schedule: Q01DX009 (ip), vehicle: saline with Tween-80
[9] = dose: 200.0 mg/kg/injection, schedule: Q01DX009 (ip), vehicle: saline with Tween-80

Structure (SMILES): CN1CCCN(C(c2ccccc2)c2ccc(Cl)cc2)CC1 (stereo not given)
- survivor count (dose: 62.5 mg/kg/injection, schedule: Q01DX009 (ip), vehicle: saline): 10 of 10
- survivor count (dose: 125.0 mg/kg/injection, schedule: Q01DX009 (ip), vehicle: saline): 0 of 10
- survivor count (dose: 250.0 mg/kg/injection, schedule: Q01DX009 (ip), vehicle: saline): 0 of 10

Structure (SMILES): C=CCNCCN1CCN(CCCN2c3ccccc3Sc3ccc(C(F)(F)F)cc32)CC1
- survivor count (dose: 25.0 mg/kg/injection, schedule: Q01DX009 (ip), vehicle: saline): 10 of 10
- survivor count (dose: 37.5 mg/kg/injection, schedule: Q04DX003 (ip), vehicle: saline): 10 of 10
- survivor count [1]: 10 of 10
- survivor count (dose: 85.0 mg/kg/injection, schedule: Q04DX003 (ip), vehicle: saline): 6 of 10
- survivor count (dose: 125.0 mg/kg/injection, schedule: Q04DX003 (ip), vehicle: saline): 0 of 10

Structure (SMILES): O=C(O)c1cc2ccccc2o1
- T/C (dose: 25.0 mg/kg/injection, schedule: Q01DX009 (ip), vehicle: saline with Tween-80): 125 % of control [9 of 10 alive]

Structure (SMILES): CCOC(=O)N1CCN(CCCCCOc2ccc(CC(C)(C)C)cc2Cl)CC1
- survivor count [1]: 8 of 10
- survivor count [2]: 10 of 10
- survivor count (dose: 200.0 mg/kg/injection, schedule: Q01DX009 (ip), vehicle: saline): 6 of 10

Structure (SMILES): O=C(Cn1cc(F)c(=O)[nH]c1=O)c1ccco1
- survivor count [3]: 9 of 10

Structure (SMILES): Nc1ccccc1SC1CC(=O)N(c2cccc(Cl)c2)C1=O (stereo not given)
- survivor count [3]: 9 of 10

Structure (SMILES): O=NN(CCF)C(=O)NC1CCS(=O)(=O)CC1
- T/C (dose: 1.9 mg/kg/injection, schedule: Q01DX001 (ip), vehicle: saline): 136 % of control

Structure (SMILES): Cc1cc(NC(=O)NCc2ccc(N3C(N)=NC(N)=NC3(C)C)cc2)ccc1S(=O)(=O)F
- T/C (dose: 100.0 mg/kg/injection, schedule: Q04DX003 (ip), vehicle: saline): 127 % of control
- T/C (dose: 200.0 mg/kg/injection, schedule: Q04DX003 (ip), vehicle: saline): 127 % of control

Structure (SMILES): CC(=O)O[C@H]1[C@H]2O[C@]23[C@@H]2CC[C@@H]4C[C@@H](O)CC[C@]4(C)[C@H]2CC[C@]3(C)[C@H]1c1ccc(=O)oc1
- survivor count (dose: 15.0 mg/kg/injection, schedule: Q01DX009 (ip), vehicle: saline with Tween-80): 5 of 6
- survivor count (dose: 30.0 mg/kg/injection, schedule: Q01DX009 (ip), vehicle: saline with Tween-80): 0 of 6

Structure (SMILES): C=C1C(=O)OC2/C=C(\C)CC/C=C(/C=O)C(OC(=O)C(C)C)C(O)C12 (stereo not given)
- survivor count (dose: 8.0 mg/kg/injection, schedule: Q01DX009 (ip), vehicle: saline with Tween-80): 5 of 6
- survivor count (dose: 16.0 mg/kg/injection, schedule: Q01DX009 (ip), vehicle: saline with Tween-80): 6 of 10 and 4 of 6

Structure (SMILES): N[C@H](C(=O)O)[C@H]1ON=C(Cl)[C@@H]1O
- T/C (dose: 32.0 mg/kg/injection, schedule: Q01DX009 (ip), vehicle: saline): 131 % of control [9 of 10 alive]
- T/C (dose: 128.0 mg/kg/injection, schedule: Q01DX009 (ip), vehicle: saline): 132 % of control

Structure (SMILES): O=S(=O)(O)O.[Ga]
- survivor count [2]: 10 of 10

Structure (SMILES): Cc1ccccc1-n1c(C)nc2ccccc2c1=O
- survivor count [4]: 10 of 10
- survivor count (dose: 100.0 mg/kg/injection, schedule: Q01DX009 (ip), vehicle: Klucel (hydroxypropylcellulose) (HPC)): 9 of 10
- survivor count [5]: 9 of 10

Structure (SMILES): O=CNC(CSSCC(NC=O)C(=O)O)C(=O)O (stereo not given)
- survivor count [6]: 9 of 10

Structure (SMILES): CN1CCC=C(CN2c3ccccc3Sc3ccccc32)C1
- survivor count [2]: 5 of 10

Structure (SMILES): CC(C)NNC(=O)c1ccncc1
- survivor count [2]: 10 of 10
- survivor count (dose: 400.0 mg/kg/injection, schedule: Q01DX009 (ip), vehicle: saline): 10 of 10

Structure (SMILES): C=C(Cl)C(=NC(C)(C)C)Nc1ccccc1C
- survivor count [7]: 8 of 10

Structure (SMILES): CCc1ccc2c(c1)N(CC(C)CN(C)C)c1ccccc1S2 (stereo not given)
- survivor count (dose: 0.78 mg/kg/injection, schedule: Q01DX009 (ip), vehicle: saline): 9 of 10 and 10 of 10
- survivor count (dose: 1.56 mg/kg/injection, schedule: Q01DX009 (ip), vehicle: saline): 10 of 10
- survivor count (dose: 3.12 mg/kg/injection, schedule: Q01DX009 (ip), vehicle: saline): 10 of 10
- survivor count (dose: 6.25 mg/kg/injection, schedule: Q01DX009 (ip), vehicle: saline): 6 of 10, 7 of 10, 10 of 10
- survivor count (dose: 12.5 mg/kg/injection, schedule: Q01DX009 (ip), vehicle: saline): 1 of 10, 2 of 10, 10 of 10

Structure (SMILES): Cc1ccc(NC(=O)c2ccc(C(=O)Nc3ccc(C)cc3)cc2)cc1
- survivor count [8]: 10 of 10
- survivor count [9]: 9 of 10
- survivor count [6]: 10 of 10

Structure (SMILES): CCOC(=O)C(Cl)CCl (stereo not given)
- survivor count [5]: 6 of 9

Structure (SMILES): C[n+]1c(-c2cccc3ccccc23)c2cc(N)ccc2c2ccccc21
- survivor count (dose: 25.0 mg/kg/injection, schedule: Q01DX009 (ip), vehicle: water): 5 of 10
- survivor count (dose: 50.0 mg/kg/injection, schedule: Q01DX009 (ip), vehicle: water): 0 of 10

Structure (SMILES): CCCCNC(C)(C)C(SSSC(c1ccc(Cl)cc1)C(C)(C)NCCCC)c1ccc(Cl)cc1 (stereo not given)
- survivor count [7]: 10 of 10

Structure (SMILES): Cc1ccccc1CN1CCN(CCOC(c2ccccc2)c2ccccc2Cl)CC1 (stereo not given)
- survivor count (dose: 6.25 mg/kg/injection, schedule: Q01DX009 (ip), vehicle: Klucel (hydroxypropylcellulose) (HPC)): 10 of 10
- survivor count [7]: 10 of 10

Structure (SMILES): COc1cccc(Cc2ccncc2)c1OC
- survivor count (dose: 200.0 mg/kg/injection, schedule: Q01DX009 (ip), vehicle: water): 10 of 10
- survivor count (dose: 400.0 mg/kg/injection, schedule: Q01DX009 (ip), vehicle: water): 0 of 10

Structure (SMILES): [O-][n+]1c(CCl)nc2cccc3c2c1-c1ccccc1-3
- survivor count [9]: 9 of 10

Structure (SMILES): OCN(CO)c1nc(N(CO)CO)nc(N(CO)CO)n1
- survivor count [8]: 6 of 10
- survivor count [6]: 0 of 10
- survivor count (dose: 800.0 mg/kg/injection, schedule: Q01DX009 (ip), vehicle: saline with Tween-80): 0 of 10

Structure (SMILES): CCCCC(=O)OCC(=O)[C@]1(O)Cc2c(O)c3c(c(O)c2[C@@H](OC2CC(NC(=O)C(F)(F)F)C(O)C(C)O2)C1)C(=O)c1c(OC)cccc1C3=O (stereo not given in full)
- T/C (dose: 8.0 mg/kg/injection, schedule: Q01DX009 (ip), vehicle: distilled water + Tween-80): 136 % of control
- T/C (dose: 9.38 mg/kg/injection, schedule: Q01DX001 (ip), vehicle: clinical formulation): 126 % of control
- T/C (dose: 16.0 mg/kg/injection, schedule: Q01DX009 (ip), vehicle: distilled water + Tween-80): 140 % of control
- T/C (dose: 60.0 mg/kg/injection, schedule: Q01DX004 (ip), vehicle: other): 141 % of control
- T/C (dose: 75.0 mg/kg/injection, schedule: Q01DX001 (ip), vehicle: clinical formulation): 128 % of control
- survivor count (dose: 256.0 mg/kg/injection, schedule: Q01DX009 (ip), vehicle: distilled water + Tween-80): 10 of 10

Structure (SMILES): N#CSc1ccc(S(N)(=O)=O)cc1
- survivor count [4]: 0 of 10

Structure (SMILES): CC[CH2][Sn]([CH2]CC)([CH2]CC)[O][Sn]([CH2]CC)([CH2]CC)[CH2]CC
- survivor count (dose: 2.0 mg/kg/injection, schedule: Q04DX003 (ip), vehicle: saline): 10 of 10

Structure (SMILES): CCN(CC)CCSC(=S)N1c2ccccc2Sc2ccccc21
- survivor count (dose: 0.54 mg/kg/injection, schedule: Q01DX009 (ip), vehicle: Klucel (hydroxypropylcellulose) (HPC)): 6 of 10
- survivor count (dose: 35.0 mg/kg/injection, schedule: Q01DX009 (ip), vehicle: Klucel (hydroxypropylcellulose) (HPC)): 9 of 10
- survivor count (dose: 70.0 mg/kg/injection, schedule: Q01DX009 (ip), vehicle: Klucel (hydroxypropylcellulose) (HPC)): 10 of 10
- survivor count (dose: 140.0 mg/kg/injection, schedule: Q01DX009 (ip), vehicle: Klucel (hydroxypropylcellulose) (HPC)): 10 of 10
- survivor count (dose: 280.0 mg/kg/injection, schedule: Q01DX009 (ip), vehicle: Klucel (hydroxypropylcellulose) (HPC)): 10 of 10
